# Reference: PubChem BioAssay AID1347076 (National Center for Advancing Translational Sciences (NCATS), 2019)
# Hit rate of the full screen: of about 400,000 compounds, about 13,000 (3.2%) were called active. The shares of active, inactive and inconclusive entries below differ from those in the screen. Calls come from the whole dose curve; as a rule, active = well fitted cell-killing curve with a large enough effect; inconclusive = small, poorly fitted or top-dose-only effect, or effect the other way; inactive = flat fitted curve, though single readings scatter. Potencies of inconclusive entries are doubtful fits and often do not repeat.
# Experiment: qHTS assay for MDR1-selective chemotherapeutics: Primary screen using the drug-selected MDR subline cells KB-V1; note: nearly all actives have a fitted effect of over 60% in size
# Conditions: KB-V1 MDR cells viability, CellTiter-Glo, 72 h; activity change, negative = cytotoxicity: at 46.1 µM (top of the series)
# Outline: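 Luminescent ATP read-out (CellTiter-Glo, 10 min) measures survival of drug-selected KB-V1 MDR cells after 72 h, 37 degrees C compound exposure. Medium: phenol-red-free DMEM, 10% FBS. Values from fitted concentration-response curves.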
# % is set by controls: 0 for no effect and ±100 for the full control effect; potency is the fitted concentration of half-maximal effect.
SMILES,Potency,"activity change, negative = cytotoxicity"
COc1ccccc1N1CCN(S(=O)(=O)c2ccc(F)cc2)CC1,active: 13 µM,
O=C(N/N=C/c1ccco1)C1CC1c1ccccc1 (stereo not drawn),"inconclusive: 20.6 µM [rising, single point]",
O=C(CN1CCCCCCC1)N/N=C/c1ccc([N+](=O)[O-])o1,,inactive: -8.04%
O=C(CCc1nnc(C2CCCCC2)o1)N1CCN(c2ccccc2F)CC1,"inconclusive: 9.2 µM [cytotoxic, partial curve]",
CC1CC1c1ccc(/C=C(\C#N)C(=O)Nc2ccccc2Cl)o1 (stereo not drawn),"inconclusive: 18.4 µM [cytotoxic, single point]",
CCCCN(CC)C(=O)c1c[nH]c2ccc(S(=O)(=O)Nc3cccc(OC)c3)cc2c1=O,,inactive: 0.646%
CCOC(=O)c1ccccc1N/C=C/C(=O)c1ccccc1,"inconclusive: 18.4 µM [cytotoxic, partial curve, poor fit]",
COc1ccc(S(=O)(=O)N2CCN(c3nn(C)c(=O)n(C)c3=O)CC2)cc1,"inconclusive: 29.1 µM [cytotoxic, single point]",
COc1c(O)ccc(/C=N\NC(=O)c2ccc3c(c2)OCO3)c1[N+](=O)[O-],,inactive: 27.6%
C=CCn1cc(C(=O)NCCCOCC)c(=O)c2cc(S(=O)(=O)N(CC)CC)ccc21,active: 2.91 µM,
COc1ccc(C(C(=O)NCc2ccccc2)N(Cc2cccnc2)C(=O)c2snc(C(N)=O)c2N)cc1OC (stereo not drawn),"inconclusive: 16.4 µM [rising, partial curve, poor fit]",
CC(C)c1cc(C(=O)NC2CCCc3c2cnn3-c2ccccc2F)no1 (stereo not drawn),"inconclusive: 0.291 µM [cytotoxic, full curve, poor fit]",
CC(=O)N1c2ccccc2CC1C(=O)N1CCN(c2cccc(C)c2C)CC1 (stereo not drawn),,inactive: 11%
CCc1cc(Cl)c(OC)c(C(=O)NC[C@@H]2CCCN2CC)c1O,"inconclusive: 20.6 µM [cytotoxic, single point]",
Cc1onc(-c2ccccc2)c1C(=O)N1CCN(c2ccc([N+](=O)[O-])cc2)CC1,"inconclusive: 13 µM [cytotoxic, partial curve]",
O=C(Nc1ccc(Cl)cc1C(=O)NCC1CCCO1)c1ccc(Cl)cc1Cl (stereo not drawn),active: 10.3 µM,
COc1cc(OC)cc(-c2cc3cc4c(cc3cn2)OCO4)c1,"inconclusive: 0.0116 µM [cytotoxic, full curve, poor fit]",
COc1ccc(S(=O)(=O)N2CCC(C(=O)Nc3cccc(C(C)=O)c3)CC2)cc1C,,inconclusive: 7.38%
Cn1ncc2c(NCCc3ccccc3)nc(Cl)nc21,active: 4.61 µM,
CNS(=O)(=O)c1cc(Br)ccc1S(=O)c1ccccc1C(=O)O (stereo not drawn),"inconclusive: 29.1 µM [rising, single point]",
COc1ccc(NC(=O)C2CCCN(S(=O)(=O)c3ccc(C)cc3)C2)cc1OC (stereo not drawn),"inconclusive: 7.31 µM [cytotoxic, full curve, poor fit]",
CCC(C)(C)C1CCC2(CC1)NC(=O)N(CC(=O)NCCOc1ccccc1)C2=O (stereo not drawn),,inconclusive: -37.8%
CCCCCCCCNCCS(=O)(=O)NCCCCCCCC,"inconclusive: 29.1 µM [cytotoxic, single point]",

# Single values from the list:
# COc1cc(OC)cc(-c2cc3cc4c(cc3cn2)OCO4)c1 | Potency: inconclusive: 0.0116 µM [cytotoxic, full curve, poor fit]
# CCCCN(CC)C(=O)c1c[nH]c2ccc(S(=O)(=O)Nc3cccc(OC)c3)cc2c1=O | activity change, negative = cytotoxicity: inactive: 0.646%
# COc1ccc(S(=O)(=O)N2CCC(C(=O)Nc3cccc(C(C)=O)c3)CC2)cc1C | activity change, negative = cytotoxicity: inconclusive: 7.38%
# Cc1onc(-c2ccccc2)c1C(=O)N1CCN(c2ccc([N+](=O)[O-])cc2)CC1 | Potency: inconclusive: 13 µM [cytotoxic, partial curve]

# Later entries

SMILES,Potency,"activity change, negative = cytotoxicity"
CCN(CC)C(=O)C1=C(C)N(Cc2ccc(C(C)(C)C)cc2)C(=O)C(CC(=O)NCc2cccs2)C1 (stereo not drawn),"inconclusive: 5.8 µM [cytotoxic, partial curve]",
O=C1CCCC2=C1C(c1cccc(Br)c1)n1nc(-c3ccco3)nc1N2 (stereo not drawn),,inactive: 2.08%
CCCN(C1CCS(=O)(=O)C1)S(=O)(=O)c1cc(OC)ccc1OC (stereo not drawn),,inconclusive: -0.547%
O=S(=O)(NCCS(=O)(=O)N1CCN(c2ccc(F)cc2)CC1)c1ccc(F)cc1,"inconclusive: 16.4 µM [cytotoxic, partial curve]",
Cc1cccc(S(=O)(=O)N(C)C[C@@H]2OCc3cn(nn3)CCCC(=O)N([C@H](C)CO)C[C@H]2C)c1,,inactive: 14.2%
CCn1cc(C(=O)O)c(=O)c2cc(F)c(N/N=C/c3ccccc3[N+](=O)[O-])cc21,active: 13 µM,
CCn1c(C)c(C2=CCN(S(=O)(=O)c3ccc(C)cc3)CC2)c2ccccc21,active: 16.4 µM,
Cc1ccccc1-n1sc2cc(F)ccc2c1=O,"inconclusive: 29.1 µM [cytotoxic, single point]",
O=C(c1cccs1)N1C[C@H](O)[C@@H](n2cc(-c3ccc(F)cc3)nn2)C[C@@H]1c1ccccc1,,inactive: -0.14%
O=C1c2cnc3nc(SCc4cccc(Cl)c4)nn3c2CC2c3ccccc3CCN12 (stereo not drawn),,inactive: -10.1%
O=C(Nc1nc(-c2ccc(Cl)s2)cs1)c1cccs1,"inconclusive: 29.1 µM [cytotoxic, single point]",
CC(Sc1ncnc2sc(-c3ccccc3)cc12)C(=O)NCC1CCCO1 (stereo not drawn),"inconclusive: 14.6 µM [cytotoxic, partial curve]",
CC(Oc1cccc(Cl)c1)C(=O)Nc1ccccc1N1CCCCC1 (stereo not drawn),"inconclusive: 16.4 µM [cytotoxic, single point]",
C[C@]12CCC3C(CC=C4C[C@@H](O)CC[C@@]43C)C1CCC2[C@]1(C)CCC(=O)O1 (stereo partly drawn),"inconclusive: 3.66 µM [cytotoxic, full curve, poor fit]",
CCN(CC)S(=O)(=O)c1ccc(C(C)NC(=O)C2CCCN2C(=O)c2cccs2)cc1 (stereo not drawn),,inactive: -8.57%
O=C(COC(=O)CNC(=O)c1ccccc1F)NC1CC1,,inactive: 0%
Cc1nn(-c2ccc(Cl)cc2)c(NC(=O)C(C)C)c(-c2ccccc2)c1=O,"inconclusive: 0.0052 µM [rising, full curve, poor fit]",
CC(=O)CC1c2cc(F)ccc2C=C(c2ccsc2)N1c1ccc(C#CC2(O)CCCCC2)cc1 (stereo not drawn),"inconclusive: 14.6 µM [cytotoxic, partial curve]",
COc1ccc(N(CC(=O)Nc2cccc(N(C)S(C)(=O)=O)c2)S(=O)(=O)c2ccccc2)cc1Cl,"inconclusive: 18.4 µM [cytotoxic, single point]",
CCCOc1ccc(-c2cccc(NS(=O)(=O)c3cccs3)c2)nn1,,inactive: 2.85%
COc1ccccc1-n1cnc2cc(NCc3ccccn3)ccc21,"inconclusive: 29.1 µM [cytotoxic, single point]",
N#Cc1cccc(S(=O)(=O)NCC(=O)OCC(=O)NCc2ccccc2)c1,"inconclusive: 29.1 µM [rising, single point]",
O=C(COC(=O)c1ccc([N+](=O)[O-])o1)NC1CCCCC1,,inactive: -22.9%

SMILES,Potency,"activity change, negative = cytotoxicity"
Cc1nc(NC(=O)c2ccccc2)sc1-c1csc(NCc2ccco2)n1,"inconclusive: 18.4 µM [cytotoxic, single point]",
CN(CC(=O)Nc1ccc(F)c(F)c1F)C(=O)c1cc(-c2ccncc2)nc2ccccc12,"inconclusive: 20.6 µM [cytotoxic, partial curve, poor fit]",
COc1ccc(Nc2ncnc3onc(-c4ccc(Cl)cc4)c23)cc1Cl,,inactive: -22.2%
Cc1ccccc1CCN(CC(=O)NC1CCCCC1)C(=O)c1csnn1,"inconclusive: 7.31 µM [cytotoxic, partial curve]",
NS(=O)(=O)c1cccc(NC(=O)CSc2n[nH]c(-c3ccccc3Br)n2)c1,,inactive: 3.85%
Cc1ccc(OCC(=O)N/N=C/c2ccncc2)cc1,"inconclusive: 29.1 µM [cytotoxic, single point]",
Cc1c(C(=O)OC(C)C)sc(N)c1C(=O)OC(C)C,"inconclusive: 18.4 µM [cytotoxic, single point]",
COc1ccc(S(=O)(=O)N2CCOC2CNC(=O)C(=O)NCCCN2CCCC2=O)cc1OC (stereo not drawn),"inconclusive: 2.31 µM [rising, partial curve, poor fit]",
C[C@H]1CC[C@@]2(O[C@@H](CCO)C[C@H](O)[C@H]2O)O1,"inconclusive: 32.6 µM [rising, single point]",
COc1cc(OC)c(NC(=O)c2cnn(-c3cccc(Cl)c3C)c2C2CCN(C(=O)OC(C)(C)C)CC2)cc1Cl,"inconclusive: 25.9 µM [rising, single point]",
N/C(=N\OC(=O)c1ccc(=O)n(Cc2ccccc2)c1)c1ccccn1,,inconclusive: -30.2% [cytotoxic]
COc1cccc(C(C(=O)NCc2ccccc2)N2CCN(c3cccc(C)c3C)CC2)c1OC (stereo not drawn),active: 16.4 µM,
CCOc1ccc(C2=Nc3ccc(Br)cc3C(c3ccc(N4CCOCC4)cc3)=NN2)cc1,,inactive: 5.35%
CCNC(=S)N1CCN(CCN=CC2=C(O)CC(c3ccco3)CC2=O)CC1 (stereo not drawn),"inconclusive: 25.9 µM [rising, single point]",
O=C(/C=C/c1c(F)cccc1Cl)c1ccc(O)cc1,,inactive: 2.24%
CC(C)(C)C(=O)c1c(N)[nH]c(C(=O)c2ccccc2)c1-c1ccc(Cl)cc1,"inconclusive: 16.4 µM [cytotoxic, partial curve, poor fit]",
O=C(CCc1nc2ccccc2c(=O)[nH]1)OCC(=O)c1ccc(C2CCCCC2)cc1,"inconclusive: 16.4 µM [rising, partial curve, poor fit]",
Cc1ccc(NC(=O)c2cn(-c3ccccc3)nc2-c2ccccc2)cc1,"inconclusive: 29.1 µM [cytotoxic, single point]",
Cc1cc(C)c(C)c(S(=O)(=O)NCC(=O)Nc2ccc(F)cc2)c1C,,inactive: -6.57%
N=C(N)SCc1nc2ccccn2c1Br,"inconclusive: 29.1 µM [cytotoxic, single point]",
CC1=C(C(=O)N(C)C)CC(CC(=O)NCCCN(C)C)C(=O)N1CCC1=CCCCC1 (stereo not drawn),"inconclusive: 29.1 µM [rising, single point]",
COc1cccc(OC)c1-c1nn2c(-c3ccccc3Cl)nnc2s1,active: 9.2 µM,
